# Experimental data: the supplement of paper PMC7666118
# Protein sequences, listed by entry. Tags and fused reporters are not part of them. Lines headed by an entry give the natural chain unless they say otherwise; changes in a name come on top.
# UniProt Q8N960: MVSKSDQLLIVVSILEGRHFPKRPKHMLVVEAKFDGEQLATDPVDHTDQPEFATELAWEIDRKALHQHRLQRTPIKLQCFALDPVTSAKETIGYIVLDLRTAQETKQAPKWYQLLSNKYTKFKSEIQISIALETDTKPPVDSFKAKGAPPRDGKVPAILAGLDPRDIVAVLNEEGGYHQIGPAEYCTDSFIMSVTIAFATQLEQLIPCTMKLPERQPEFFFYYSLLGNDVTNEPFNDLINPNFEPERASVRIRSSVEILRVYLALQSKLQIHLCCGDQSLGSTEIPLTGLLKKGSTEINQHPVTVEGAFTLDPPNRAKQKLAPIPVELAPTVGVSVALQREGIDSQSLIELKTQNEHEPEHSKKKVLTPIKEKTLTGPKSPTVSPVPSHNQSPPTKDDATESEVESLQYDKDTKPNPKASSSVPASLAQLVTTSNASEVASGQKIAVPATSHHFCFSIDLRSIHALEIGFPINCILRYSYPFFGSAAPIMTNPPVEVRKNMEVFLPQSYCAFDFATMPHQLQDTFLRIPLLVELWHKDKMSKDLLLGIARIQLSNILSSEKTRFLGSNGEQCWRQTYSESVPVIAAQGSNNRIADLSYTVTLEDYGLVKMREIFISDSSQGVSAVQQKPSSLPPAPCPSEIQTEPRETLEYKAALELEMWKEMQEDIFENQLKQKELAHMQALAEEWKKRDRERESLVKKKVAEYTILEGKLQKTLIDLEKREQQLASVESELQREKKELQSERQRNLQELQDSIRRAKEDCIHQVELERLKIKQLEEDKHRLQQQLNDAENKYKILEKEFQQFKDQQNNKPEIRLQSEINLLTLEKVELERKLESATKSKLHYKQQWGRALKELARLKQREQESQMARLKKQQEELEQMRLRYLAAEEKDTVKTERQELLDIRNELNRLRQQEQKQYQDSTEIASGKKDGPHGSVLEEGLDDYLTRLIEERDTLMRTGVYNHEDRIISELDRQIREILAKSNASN
# UniProt Q5VV42: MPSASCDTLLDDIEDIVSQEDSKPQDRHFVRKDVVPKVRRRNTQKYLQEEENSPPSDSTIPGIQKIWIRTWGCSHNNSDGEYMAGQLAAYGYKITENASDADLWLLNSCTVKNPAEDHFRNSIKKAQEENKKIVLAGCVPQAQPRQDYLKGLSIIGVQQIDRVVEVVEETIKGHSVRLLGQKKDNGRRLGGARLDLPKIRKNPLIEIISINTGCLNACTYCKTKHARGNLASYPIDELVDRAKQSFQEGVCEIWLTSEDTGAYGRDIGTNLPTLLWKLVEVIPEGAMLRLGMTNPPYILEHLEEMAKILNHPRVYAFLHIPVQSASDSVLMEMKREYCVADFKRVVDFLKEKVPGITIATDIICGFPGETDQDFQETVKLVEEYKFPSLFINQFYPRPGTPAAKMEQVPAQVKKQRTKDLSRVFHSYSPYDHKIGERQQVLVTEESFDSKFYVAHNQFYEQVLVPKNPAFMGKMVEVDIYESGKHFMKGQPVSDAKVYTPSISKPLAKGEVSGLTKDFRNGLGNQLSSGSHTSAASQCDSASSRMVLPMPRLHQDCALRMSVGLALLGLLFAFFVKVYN
# UniProt O14967: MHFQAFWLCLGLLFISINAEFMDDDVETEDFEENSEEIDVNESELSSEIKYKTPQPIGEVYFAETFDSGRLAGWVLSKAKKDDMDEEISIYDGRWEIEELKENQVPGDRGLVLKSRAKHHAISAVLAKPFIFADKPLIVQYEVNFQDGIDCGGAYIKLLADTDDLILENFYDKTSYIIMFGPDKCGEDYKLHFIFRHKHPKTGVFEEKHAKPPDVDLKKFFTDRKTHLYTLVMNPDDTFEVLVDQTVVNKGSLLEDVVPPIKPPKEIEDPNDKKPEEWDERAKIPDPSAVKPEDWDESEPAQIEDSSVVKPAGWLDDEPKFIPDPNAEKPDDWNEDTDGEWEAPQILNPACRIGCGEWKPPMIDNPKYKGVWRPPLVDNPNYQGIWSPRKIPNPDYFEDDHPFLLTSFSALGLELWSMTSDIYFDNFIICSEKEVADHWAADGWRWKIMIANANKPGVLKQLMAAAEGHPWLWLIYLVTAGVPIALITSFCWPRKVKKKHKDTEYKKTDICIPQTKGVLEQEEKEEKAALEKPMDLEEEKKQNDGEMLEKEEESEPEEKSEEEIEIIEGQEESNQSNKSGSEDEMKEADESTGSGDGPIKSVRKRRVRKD
# UniProt Q9NZJ6: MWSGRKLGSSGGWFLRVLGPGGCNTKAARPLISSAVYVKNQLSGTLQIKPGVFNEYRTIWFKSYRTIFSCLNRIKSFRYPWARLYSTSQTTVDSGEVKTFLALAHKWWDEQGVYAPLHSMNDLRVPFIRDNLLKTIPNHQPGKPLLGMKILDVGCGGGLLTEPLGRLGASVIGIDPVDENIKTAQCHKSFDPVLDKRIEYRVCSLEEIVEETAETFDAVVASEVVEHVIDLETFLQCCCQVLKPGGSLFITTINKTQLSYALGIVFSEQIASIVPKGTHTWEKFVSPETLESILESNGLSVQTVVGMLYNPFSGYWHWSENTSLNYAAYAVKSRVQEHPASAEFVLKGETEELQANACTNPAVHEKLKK
# UniProt Q14004, whole entry, looked up: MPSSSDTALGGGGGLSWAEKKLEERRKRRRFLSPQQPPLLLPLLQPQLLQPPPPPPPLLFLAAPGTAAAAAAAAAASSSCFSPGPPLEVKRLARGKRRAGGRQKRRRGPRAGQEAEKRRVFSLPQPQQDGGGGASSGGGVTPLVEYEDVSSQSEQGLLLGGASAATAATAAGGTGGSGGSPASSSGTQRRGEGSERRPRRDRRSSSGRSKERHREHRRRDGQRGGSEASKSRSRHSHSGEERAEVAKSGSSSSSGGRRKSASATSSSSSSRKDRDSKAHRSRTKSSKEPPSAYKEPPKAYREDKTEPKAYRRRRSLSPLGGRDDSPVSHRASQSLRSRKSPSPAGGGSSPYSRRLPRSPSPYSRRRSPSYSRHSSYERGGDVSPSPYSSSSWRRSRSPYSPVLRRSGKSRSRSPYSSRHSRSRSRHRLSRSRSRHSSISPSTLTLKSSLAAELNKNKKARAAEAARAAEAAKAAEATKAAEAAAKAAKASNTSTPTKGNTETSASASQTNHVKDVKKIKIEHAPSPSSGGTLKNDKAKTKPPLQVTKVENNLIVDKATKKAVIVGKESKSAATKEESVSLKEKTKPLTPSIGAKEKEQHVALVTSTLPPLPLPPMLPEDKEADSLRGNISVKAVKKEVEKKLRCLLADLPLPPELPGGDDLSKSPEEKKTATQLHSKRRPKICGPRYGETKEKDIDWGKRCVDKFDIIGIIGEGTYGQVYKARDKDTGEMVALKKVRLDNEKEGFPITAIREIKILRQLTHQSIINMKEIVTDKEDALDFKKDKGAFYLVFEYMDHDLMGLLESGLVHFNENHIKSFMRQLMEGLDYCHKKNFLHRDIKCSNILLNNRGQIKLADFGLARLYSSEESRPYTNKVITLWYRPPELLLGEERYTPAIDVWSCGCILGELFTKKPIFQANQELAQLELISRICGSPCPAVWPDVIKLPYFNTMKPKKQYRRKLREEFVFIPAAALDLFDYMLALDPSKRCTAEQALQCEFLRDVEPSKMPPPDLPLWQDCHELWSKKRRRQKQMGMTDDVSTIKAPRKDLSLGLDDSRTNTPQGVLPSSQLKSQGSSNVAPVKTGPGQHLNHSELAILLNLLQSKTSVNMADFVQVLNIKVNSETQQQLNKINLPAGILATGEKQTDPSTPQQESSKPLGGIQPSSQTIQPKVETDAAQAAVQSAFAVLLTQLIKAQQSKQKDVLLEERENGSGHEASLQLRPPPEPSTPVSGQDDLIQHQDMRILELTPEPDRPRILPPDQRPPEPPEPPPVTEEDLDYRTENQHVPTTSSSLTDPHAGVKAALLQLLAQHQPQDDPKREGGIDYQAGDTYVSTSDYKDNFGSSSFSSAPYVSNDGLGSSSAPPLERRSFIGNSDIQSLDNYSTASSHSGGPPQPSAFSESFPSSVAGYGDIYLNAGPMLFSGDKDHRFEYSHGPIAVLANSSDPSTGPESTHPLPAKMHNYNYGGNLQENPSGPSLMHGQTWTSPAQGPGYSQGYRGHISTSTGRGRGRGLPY
# UniProt Q53EZ4: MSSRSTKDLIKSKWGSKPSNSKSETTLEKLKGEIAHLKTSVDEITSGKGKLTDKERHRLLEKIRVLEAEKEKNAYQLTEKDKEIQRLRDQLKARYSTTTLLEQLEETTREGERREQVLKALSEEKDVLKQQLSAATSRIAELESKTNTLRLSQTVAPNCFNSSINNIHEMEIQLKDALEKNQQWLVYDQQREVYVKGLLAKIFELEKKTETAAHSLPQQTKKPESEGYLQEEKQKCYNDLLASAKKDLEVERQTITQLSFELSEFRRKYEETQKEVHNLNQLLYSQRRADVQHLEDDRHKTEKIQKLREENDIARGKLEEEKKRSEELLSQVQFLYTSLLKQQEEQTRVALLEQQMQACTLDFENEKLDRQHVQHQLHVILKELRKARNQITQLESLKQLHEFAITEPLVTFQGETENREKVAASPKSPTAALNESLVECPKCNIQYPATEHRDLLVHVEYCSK
# UniProt Q5TA45, whole entry: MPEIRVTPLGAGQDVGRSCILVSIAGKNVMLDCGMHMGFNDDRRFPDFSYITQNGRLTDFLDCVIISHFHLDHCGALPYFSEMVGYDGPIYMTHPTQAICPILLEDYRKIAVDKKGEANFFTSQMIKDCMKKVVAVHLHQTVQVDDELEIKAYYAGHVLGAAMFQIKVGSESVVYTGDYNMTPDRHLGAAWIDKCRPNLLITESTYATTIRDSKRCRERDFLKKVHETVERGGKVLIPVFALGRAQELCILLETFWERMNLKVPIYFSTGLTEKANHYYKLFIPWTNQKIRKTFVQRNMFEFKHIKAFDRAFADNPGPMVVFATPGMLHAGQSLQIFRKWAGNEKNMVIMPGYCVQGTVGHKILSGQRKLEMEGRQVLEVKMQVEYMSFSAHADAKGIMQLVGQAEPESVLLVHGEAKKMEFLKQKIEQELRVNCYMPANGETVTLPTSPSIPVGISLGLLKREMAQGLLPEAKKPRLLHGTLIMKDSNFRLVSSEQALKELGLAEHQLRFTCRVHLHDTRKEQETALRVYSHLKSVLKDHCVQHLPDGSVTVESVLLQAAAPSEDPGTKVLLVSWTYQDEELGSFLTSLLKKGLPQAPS
# UniProt Q5JTW2: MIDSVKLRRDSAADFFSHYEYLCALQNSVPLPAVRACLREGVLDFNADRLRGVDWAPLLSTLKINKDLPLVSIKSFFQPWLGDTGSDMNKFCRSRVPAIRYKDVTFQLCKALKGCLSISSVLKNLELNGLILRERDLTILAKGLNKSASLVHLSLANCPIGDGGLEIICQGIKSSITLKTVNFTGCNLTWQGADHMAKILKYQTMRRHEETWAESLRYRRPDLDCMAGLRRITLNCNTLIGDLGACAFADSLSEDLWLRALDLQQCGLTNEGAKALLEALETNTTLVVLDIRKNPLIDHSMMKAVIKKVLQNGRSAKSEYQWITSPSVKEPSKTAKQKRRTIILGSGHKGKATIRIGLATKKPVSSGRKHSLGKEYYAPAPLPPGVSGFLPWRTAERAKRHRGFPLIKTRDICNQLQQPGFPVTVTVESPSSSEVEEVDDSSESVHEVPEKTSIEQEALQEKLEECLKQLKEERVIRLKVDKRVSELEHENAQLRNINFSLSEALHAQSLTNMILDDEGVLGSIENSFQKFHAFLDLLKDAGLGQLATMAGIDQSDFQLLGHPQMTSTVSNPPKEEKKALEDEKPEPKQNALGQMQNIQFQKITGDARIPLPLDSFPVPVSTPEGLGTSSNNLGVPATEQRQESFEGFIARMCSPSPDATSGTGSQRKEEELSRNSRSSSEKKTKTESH
# UniProt P46109: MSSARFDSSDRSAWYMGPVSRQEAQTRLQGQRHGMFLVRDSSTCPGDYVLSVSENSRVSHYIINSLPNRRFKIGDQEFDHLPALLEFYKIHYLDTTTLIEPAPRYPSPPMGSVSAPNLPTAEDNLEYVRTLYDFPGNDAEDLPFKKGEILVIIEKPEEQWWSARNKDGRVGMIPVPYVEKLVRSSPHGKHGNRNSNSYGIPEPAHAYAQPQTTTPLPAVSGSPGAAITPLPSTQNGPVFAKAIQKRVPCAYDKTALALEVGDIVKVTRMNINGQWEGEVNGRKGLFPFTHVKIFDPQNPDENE
# UniProt Q9UFF9, whole entry: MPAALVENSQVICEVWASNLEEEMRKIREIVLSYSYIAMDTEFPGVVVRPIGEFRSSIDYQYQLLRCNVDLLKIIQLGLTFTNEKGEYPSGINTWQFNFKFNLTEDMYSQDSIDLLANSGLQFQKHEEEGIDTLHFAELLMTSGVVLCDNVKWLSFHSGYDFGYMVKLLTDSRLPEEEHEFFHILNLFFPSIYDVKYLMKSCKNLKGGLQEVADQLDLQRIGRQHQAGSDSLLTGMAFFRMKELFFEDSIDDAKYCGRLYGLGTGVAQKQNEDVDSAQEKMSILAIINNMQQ
# UniProt Q14019: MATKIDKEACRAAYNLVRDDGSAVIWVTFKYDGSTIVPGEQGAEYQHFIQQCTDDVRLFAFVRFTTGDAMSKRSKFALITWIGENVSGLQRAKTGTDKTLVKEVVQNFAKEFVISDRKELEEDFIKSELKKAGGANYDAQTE
# The other results are listed elsewhere or left out.
# Compound: COc1ccc(Cn2ccc3cc(C)c(C(=O)NO)cc32)cc1
# Experiment: dose-dependent thermal stabilisation call (2D-TPP, DLPTP, 10% FDR) (binary (1 = stabilised)); higher = stabilised by the compound
# Settings: system: HL-60 intact cells; concentration range 0.04-10 µM
# Method: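 2D thermal proteome profiling in intact HL-60 cells treated with BRD-3811 (0, 0.04, 0.29, 2, 10 uM) for 90 min at 37 C, then heated 3 min at one of 12 temperatures (42-63.9 C). Soluble protein was quantified by TMT10 MS. The value is the DLPTP call of the paper: dose-dependent thermal stabilisation over all temperatures at 10% FDR (F-test of a dose-response against a flat model); one experiment, one call per tested protein.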
row,Target,dose-dependent thermal stabilisation call
1,CEP120 (UniProt Q8N960),inactive: 0
2,CDK5RAP3 (UniProt Q96JB5),inactive: 0
3,CDYL (UniProt Q9Y232),inactive: 0
4,CDKAL1 (UniProt Q5VV42),inactive: 0
5,CEP63 (UniProt Q96MT8),inactive: 0
6,CLGN (UniProt O14967),inactive: 0
7,COX6C (UniProt P09669),inactive: 0
8,CHMP2A (UniProt O43633),inactive: 0
9,CDK8 (UniProt P49336),inactive: 0
10,CKAP2 (UniProt Q8WWK9),inactive: 0
11,CHCHD3 (UniProt Q9NX63),inactive: 0
12,CMIP (UniProt Q8IY22),inactive: 0
13,COQ3 (UniProt Q9NZJ6),inactive: 0
14,COX16 (UniProt Q9P0S2),inactive: 0
15,CLTC (UniProt Q00610),inactive: 0
16,CDC2L5 (UniProt Q14004),inactive: 0
17,COBRA1 (UniProt Q8WX92),inactive: 0
18,CLCC1 (UniProt Q96S66),inactive: 0
19,CNNM2 (UniProt Q9H8M5),inactive: 0
20,CHAF1A (UniProt Q13111),inactive: 0

# Taken from above:
# Value for CLCC1 (UniProt Q96S66) under dose-dependent thermal stabilisation call: inactive: 0
# Value for CLGN (UniProt O14967) under dose-dependent thermal stabilisation call: inactive: 0

# (further entries)

row,Target,dose-dependent thermal stabilisation call
1,CEP55 (UniProt Q53EZ4),inactive: 0
2,CHMP4B (UniProt Q9H444),inactive: 0
3,CPSF3L (UniProt Q5TA45),inactive: 0
4,CMC1 (UniProt Q7Z7K0),inactive: 0
5,COX7A2L (UniProt O14548),inactive: 0
6,CEP78 (UniProt Q5JTW2),inactive: 0
7,CHCHD1 (UniProt Q96BP2),inactive: 0
8,COPS3 (UniProt Q9UNS2),inactive: 0
9,CNNM3 (UniProt Q8NE01),inactive: 0
10,CDC34 (UniProt P49427),inactive: 0
11,CRKL (UniProt P46109),inactive: 0
12,CINP (UniProt Q9BW66),inactive: 0
13,COPA (UniProt P53621),inactive: 0
14,CNOT8 (UniProt Q9UFF9),inactive: 0
15,CLTB (UniProt P09497),inactive: 0
16,CISD2 (UniProt Q8N5K1),inactive: 0
17,CDAN1 (UniProt Q8IWY9),inactive: 0
18,CHM (UniProt P24386),inactive: 0
19,CD97 (UniProt P48960),inactive: 0
20,COTL1 (UniProt Q14019),inactive: 0
